This passage reports LD50/ED50 quotient results from patent US4940790A, “5-(3-alkyl-5-tert.butyl-4-hydroxyphenyl)-2-amino-6H-1,3,4-thiadiazines” (Hoechst Aktiengesellschaft, priority 1987, dated 1990).

This series deals with NMRI mice. The class given is in vivo. Conditions: LD50 (i.p. mice) divided by ED50 (adjuvant arthritis, rats). The protocol: The LD50 values were determined by a standard method from the mortality occurring within 7 days in NMRI (Naval Medical Research Institute) mice (6 animals per dose) after a single intraperitoneal (i.p.) administration.

For the compound `COc1ccc2cc(C(C)C(=O)O)ccc2c1` (stereo not shown) [naproxen, 2-(6-methoxy-2-naphthyl)-propionic acid, reference compound], the LD50/ED50 quotient came out at 28.6.
